Experimental data published in the supplement of paper PMC12067093, “Discovery and optimisation of a covalent ligand for TRIM25 and its application to targeted protein ubiquitination” (Chemical Science, 2025).
Some of the results follow.

The chains behind the UniProt entries cited, without tags or fusion partners. Where a name states a change or a piece, a line headed by the entry shows the natural chain unless it says otherwise.
UniProt P09874, whole entry, looked up: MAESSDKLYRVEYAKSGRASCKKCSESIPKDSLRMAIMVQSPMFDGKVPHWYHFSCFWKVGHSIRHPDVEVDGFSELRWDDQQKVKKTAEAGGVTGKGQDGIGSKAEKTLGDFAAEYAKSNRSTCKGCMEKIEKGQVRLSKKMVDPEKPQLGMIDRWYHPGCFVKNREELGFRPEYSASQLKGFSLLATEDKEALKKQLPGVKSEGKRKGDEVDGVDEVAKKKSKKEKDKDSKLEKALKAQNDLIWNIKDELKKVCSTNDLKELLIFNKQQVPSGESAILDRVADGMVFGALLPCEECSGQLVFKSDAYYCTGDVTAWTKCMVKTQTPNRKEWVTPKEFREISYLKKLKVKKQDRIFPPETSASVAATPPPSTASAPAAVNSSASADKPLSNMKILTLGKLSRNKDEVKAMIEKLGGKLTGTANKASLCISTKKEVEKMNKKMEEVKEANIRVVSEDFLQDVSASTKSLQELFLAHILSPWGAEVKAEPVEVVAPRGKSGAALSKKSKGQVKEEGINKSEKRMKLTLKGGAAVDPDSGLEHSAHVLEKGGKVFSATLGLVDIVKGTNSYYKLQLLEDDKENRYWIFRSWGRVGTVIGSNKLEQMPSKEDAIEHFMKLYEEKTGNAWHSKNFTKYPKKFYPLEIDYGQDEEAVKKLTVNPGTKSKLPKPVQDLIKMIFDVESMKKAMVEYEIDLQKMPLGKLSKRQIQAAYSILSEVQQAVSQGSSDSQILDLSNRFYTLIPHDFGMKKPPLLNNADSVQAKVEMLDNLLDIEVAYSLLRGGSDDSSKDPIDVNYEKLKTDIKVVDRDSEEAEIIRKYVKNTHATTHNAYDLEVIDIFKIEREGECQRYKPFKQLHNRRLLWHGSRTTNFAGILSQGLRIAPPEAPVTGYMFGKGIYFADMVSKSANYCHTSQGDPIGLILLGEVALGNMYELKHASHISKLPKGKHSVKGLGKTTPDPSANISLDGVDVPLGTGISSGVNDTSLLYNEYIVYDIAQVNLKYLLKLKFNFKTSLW
UniProt Q9UQ80: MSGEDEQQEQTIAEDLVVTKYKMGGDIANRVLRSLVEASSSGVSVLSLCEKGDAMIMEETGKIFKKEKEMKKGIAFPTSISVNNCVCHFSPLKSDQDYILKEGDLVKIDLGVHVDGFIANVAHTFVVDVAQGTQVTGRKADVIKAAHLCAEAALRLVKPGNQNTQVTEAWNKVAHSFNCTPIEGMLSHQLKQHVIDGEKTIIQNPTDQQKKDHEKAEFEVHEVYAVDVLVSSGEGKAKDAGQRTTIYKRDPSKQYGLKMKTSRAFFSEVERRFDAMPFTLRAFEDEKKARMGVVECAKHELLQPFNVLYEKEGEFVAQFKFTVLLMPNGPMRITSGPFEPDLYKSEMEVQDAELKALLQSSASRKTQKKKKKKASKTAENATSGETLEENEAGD
UniProt Q8N573: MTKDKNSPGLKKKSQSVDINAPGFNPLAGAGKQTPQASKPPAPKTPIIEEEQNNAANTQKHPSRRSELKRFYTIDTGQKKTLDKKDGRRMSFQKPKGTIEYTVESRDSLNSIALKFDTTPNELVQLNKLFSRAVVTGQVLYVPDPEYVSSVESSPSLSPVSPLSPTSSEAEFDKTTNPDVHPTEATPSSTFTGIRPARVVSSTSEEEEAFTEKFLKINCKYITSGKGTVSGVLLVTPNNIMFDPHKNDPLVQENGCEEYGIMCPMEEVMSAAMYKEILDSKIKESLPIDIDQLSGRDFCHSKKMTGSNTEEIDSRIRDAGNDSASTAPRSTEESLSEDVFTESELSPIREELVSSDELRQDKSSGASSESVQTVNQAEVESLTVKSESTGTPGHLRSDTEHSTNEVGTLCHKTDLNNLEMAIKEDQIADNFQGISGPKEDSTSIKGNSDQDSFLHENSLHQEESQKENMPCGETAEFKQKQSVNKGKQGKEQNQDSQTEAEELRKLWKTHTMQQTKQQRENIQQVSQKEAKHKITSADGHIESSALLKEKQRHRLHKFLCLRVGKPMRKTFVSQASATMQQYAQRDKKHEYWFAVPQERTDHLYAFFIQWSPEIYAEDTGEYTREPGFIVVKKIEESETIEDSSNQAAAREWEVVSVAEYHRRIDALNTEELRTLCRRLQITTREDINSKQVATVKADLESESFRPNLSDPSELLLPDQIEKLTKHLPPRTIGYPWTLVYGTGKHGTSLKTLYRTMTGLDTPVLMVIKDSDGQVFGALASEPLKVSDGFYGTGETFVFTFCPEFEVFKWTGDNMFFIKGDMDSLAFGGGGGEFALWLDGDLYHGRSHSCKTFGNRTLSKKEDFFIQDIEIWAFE
UniProt O95340: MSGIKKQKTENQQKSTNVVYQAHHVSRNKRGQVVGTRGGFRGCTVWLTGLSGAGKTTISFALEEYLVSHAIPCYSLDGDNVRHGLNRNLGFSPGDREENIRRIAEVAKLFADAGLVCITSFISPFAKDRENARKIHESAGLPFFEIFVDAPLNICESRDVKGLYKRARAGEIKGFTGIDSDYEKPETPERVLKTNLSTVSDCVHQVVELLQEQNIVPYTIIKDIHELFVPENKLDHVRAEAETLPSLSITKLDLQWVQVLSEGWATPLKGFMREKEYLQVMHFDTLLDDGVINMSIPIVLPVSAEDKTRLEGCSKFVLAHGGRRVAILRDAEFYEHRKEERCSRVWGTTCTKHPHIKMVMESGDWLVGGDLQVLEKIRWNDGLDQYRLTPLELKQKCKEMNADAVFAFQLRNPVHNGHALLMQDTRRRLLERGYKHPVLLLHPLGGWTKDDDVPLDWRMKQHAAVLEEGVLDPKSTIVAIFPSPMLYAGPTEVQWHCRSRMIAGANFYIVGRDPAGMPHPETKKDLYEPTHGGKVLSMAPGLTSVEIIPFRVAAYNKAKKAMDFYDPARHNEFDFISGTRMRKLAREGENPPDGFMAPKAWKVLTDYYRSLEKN
UniProt Q9NWQ8: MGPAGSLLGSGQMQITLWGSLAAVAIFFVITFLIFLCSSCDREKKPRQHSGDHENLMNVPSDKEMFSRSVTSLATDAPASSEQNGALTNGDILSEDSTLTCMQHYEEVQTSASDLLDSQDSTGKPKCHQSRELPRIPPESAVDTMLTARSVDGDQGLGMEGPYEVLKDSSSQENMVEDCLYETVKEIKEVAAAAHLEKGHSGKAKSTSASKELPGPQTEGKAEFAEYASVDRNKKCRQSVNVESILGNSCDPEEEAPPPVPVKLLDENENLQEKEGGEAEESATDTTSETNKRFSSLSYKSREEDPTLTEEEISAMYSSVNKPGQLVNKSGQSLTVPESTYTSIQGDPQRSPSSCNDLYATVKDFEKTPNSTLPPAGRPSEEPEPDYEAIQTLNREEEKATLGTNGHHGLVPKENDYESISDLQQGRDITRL
UniProt P13674: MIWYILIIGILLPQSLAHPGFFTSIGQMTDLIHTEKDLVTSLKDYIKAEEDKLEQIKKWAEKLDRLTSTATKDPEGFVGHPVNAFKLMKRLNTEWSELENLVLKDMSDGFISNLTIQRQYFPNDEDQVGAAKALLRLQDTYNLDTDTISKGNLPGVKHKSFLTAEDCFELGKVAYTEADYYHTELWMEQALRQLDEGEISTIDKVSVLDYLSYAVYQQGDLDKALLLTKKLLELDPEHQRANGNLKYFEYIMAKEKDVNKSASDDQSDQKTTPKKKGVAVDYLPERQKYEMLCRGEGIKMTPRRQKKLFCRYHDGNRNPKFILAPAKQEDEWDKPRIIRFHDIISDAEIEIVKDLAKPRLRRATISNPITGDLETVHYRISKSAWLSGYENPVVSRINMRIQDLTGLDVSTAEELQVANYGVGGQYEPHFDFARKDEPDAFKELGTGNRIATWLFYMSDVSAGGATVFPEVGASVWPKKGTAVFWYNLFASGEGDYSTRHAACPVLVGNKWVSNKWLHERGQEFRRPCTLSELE
UniProt Q9UBD5: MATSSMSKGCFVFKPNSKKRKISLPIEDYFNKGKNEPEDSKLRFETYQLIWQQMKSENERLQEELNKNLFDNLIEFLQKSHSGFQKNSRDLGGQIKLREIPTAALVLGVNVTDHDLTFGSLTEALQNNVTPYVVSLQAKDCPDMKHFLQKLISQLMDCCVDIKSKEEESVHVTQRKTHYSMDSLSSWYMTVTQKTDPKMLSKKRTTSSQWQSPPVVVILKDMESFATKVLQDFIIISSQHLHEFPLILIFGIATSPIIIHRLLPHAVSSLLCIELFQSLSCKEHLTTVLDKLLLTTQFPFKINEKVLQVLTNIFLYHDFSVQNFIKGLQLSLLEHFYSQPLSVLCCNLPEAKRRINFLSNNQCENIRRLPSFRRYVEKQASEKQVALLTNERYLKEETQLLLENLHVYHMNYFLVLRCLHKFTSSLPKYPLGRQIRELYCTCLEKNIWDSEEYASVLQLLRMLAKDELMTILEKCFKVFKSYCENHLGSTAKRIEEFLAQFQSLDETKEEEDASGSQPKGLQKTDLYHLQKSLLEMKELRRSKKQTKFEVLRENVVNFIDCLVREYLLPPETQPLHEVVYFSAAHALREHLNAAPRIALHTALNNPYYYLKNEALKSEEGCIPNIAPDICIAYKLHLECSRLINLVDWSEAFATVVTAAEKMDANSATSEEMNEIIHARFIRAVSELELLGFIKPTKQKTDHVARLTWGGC
UniProt Q99497, whole entry, looked up: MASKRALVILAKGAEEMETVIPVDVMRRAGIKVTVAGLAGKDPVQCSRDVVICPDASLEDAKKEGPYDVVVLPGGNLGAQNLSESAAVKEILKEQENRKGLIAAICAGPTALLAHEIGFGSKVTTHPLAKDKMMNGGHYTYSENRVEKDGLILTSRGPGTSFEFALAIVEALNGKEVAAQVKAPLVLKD
UniProt O60313: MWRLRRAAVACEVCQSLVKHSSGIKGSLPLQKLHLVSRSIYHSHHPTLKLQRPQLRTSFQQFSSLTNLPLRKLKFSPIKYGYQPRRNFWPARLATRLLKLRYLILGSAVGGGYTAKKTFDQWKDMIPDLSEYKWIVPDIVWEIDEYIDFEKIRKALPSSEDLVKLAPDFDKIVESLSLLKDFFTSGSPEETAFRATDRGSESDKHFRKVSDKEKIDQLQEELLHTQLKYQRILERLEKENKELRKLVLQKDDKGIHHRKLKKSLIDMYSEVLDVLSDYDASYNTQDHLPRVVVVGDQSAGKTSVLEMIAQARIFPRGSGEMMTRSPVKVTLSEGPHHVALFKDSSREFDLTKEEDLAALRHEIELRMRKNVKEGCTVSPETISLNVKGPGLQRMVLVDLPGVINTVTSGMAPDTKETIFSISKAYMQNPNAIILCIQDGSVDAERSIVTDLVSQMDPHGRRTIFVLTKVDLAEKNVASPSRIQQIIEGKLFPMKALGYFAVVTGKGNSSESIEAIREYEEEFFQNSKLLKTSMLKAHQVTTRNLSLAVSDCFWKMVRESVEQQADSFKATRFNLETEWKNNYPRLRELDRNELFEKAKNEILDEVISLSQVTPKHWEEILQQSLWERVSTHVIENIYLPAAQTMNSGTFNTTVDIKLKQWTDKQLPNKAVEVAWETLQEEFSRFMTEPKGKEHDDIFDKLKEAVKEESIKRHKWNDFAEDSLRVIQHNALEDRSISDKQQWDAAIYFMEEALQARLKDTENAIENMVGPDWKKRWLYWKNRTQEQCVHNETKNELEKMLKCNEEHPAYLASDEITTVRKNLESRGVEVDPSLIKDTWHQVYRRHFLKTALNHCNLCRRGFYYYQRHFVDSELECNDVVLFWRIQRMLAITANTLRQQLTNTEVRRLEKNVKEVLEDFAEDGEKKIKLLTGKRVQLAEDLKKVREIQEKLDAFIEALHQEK
UniProt Q13415: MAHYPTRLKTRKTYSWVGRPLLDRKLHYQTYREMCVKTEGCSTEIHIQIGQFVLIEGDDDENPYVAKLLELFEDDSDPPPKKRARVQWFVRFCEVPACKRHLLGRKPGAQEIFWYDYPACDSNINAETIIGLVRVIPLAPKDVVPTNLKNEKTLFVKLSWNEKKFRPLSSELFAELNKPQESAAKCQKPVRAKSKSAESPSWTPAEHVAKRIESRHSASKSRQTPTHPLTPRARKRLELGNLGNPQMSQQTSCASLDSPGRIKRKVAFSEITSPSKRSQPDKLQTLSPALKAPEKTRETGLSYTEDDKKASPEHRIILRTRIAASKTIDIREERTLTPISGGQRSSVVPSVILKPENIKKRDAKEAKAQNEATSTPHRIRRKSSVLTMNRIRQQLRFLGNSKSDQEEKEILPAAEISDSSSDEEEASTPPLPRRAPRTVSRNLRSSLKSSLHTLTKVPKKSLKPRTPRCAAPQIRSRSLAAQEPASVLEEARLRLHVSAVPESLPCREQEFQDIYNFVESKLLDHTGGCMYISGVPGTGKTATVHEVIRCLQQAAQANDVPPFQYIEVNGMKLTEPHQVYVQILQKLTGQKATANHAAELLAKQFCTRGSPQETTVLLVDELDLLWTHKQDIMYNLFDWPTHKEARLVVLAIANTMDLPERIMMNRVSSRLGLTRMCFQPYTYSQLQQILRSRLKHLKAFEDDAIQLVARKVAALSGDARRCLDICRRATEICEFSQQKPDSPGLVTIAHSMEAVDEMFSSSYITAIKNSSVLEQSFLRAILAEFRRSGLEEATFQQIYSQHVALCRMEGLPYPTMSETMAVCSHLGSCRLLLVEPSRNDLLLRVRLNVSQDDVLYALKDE

Compound: Cc1cc(ccc1-c1ccccc1)C(=O)N1CCCN(CC1)C(=O)CCl [compound 10]
Assay: probe-labelled cysteine peptide fold change vs DMSO (competition) (log2 fold change); higher = less target engagement (more negative = stronger competition)
Conditions: THP-1, incubation time: 4 h
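Further: competitive profiling in live THP-1 cells: cysteine peptides tagged with an iodoacetamide desthiobiotin (IA-DTB) probe, intensity after compound treatment relative to DMSO-treated cells.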

Row | Target | probe-labelled cysteine peptide fold change (10 µM) | probe-labelled cysteine peptide fold change (50 µM)
1 | P3H1_Q32P28_600_DDSHPVHVDNCILNAETLVCVK (UniProt Q32P28) | 0.119 | 0.277
2 | PARP4_Q9UKK3_12_VMGIFANCIFCLK (UniProt Q9UKK3) | 0.166 | 0.0255
3 | PARP1_P09874_24_CSESIPK (UniProt P09874) | -0.00603 | -0.4
4 | PAPSS1_O43252_127_LFADAGLVCITSFISPYTQDR (UniProt O43252) | 0.171 | 0.448
5 | ORC4_O43929_421_YPNCPTDVR (UniProt O43929) | -0.16 | 0.00602
6 | PARG_Q86W56_397_LPGNISSLNVECR (UniProt Q86W56) | 0.00793 | -0.125
7 | PARN_O95453_302_LVIGHNMLLDVMHTVHQFYCPLPADLSEFK (UniProt O95453) | 0.0951 | 0.0864
8 | PAPOLA_P51003_36_ETDCVLTQK (UniProt P51003) | -0.218 | -0.517
9 | PAFAH1B3_Q15102_55_DKEPEVVFIGDSLVQLMHQCEIWR (UniProt Q15102) | 0.27 | 0.185
10 | PA2G4_Q9UQ80_149_AAHLCAEAALR (UniProt Q9UQ80) | 0.0776 | 0.162
11 | OXR1_Q8N573-2_50_EPAQGDLGCGSPPHRPPAPSSPEGPDTGQK (UniProt Q8N573) | -0.446 | -0.323
12 | PA2G4_Q9UQ80_85+87_GIAFPTSISVNNCVCHFSPLK (UniProt Q9UQ80) | 0.191 | -0.639
13 | OSBPL1A_Q9BXW6_711_GTITLELLEHNEAYTWTNPTCCVHNIIVGK (UniProt Q9BXW6) | 0.0211 | 0.214
14 | PAPSS2_O95340_155_IHESAGLPFFEIFVDAPLNICESR (UniProt O95340) | -0.395 | -0.241
15 | PAG1_Q9NWQ8_355_SPSSCNDLYATVK (UniProt Q9NWQ8) | -0.172 | -0.331
16 | OPLAH_O14841_236_GHTACADAYLTPAIQR (UniProt O14841) | 0.0694 | 0.184
17 | P3H1_Q32P28_591_DDSHPVHVDNCILNAETLVCVK (UniProt Q32P28) | 0.107 | -0.154
18 | OVCA2_Q8WZ82_64_SDFGSCPPEEQPR (UniProt Q8WZ82) | -0.168 | -0.173
19 | P2RX4_Q99571_132_SDASCTAGSAGTHSNGVSTGR (UniProt Q99571) | -0.103 | 0.0623
20 | P4HA1_P13674_167_SFLTAEDCFELGK (UniProt P13674) | 0.0998 | 0.23
21 | PAK4_O96013_336_IGEGSTGIVCIATVR (UniProt O96013) | 0.142 | 0.283

Row | Target | probe-labelled cysteine peptide fold change (10 µM) | probe-labelled cysteine peptide fold change (50 µM)
22 | ORC3_Q9UBD5_639_LHLECSR (UniProt Q9UBD5) | 0.139 | 0.341
23 | PARK7_Q99497_46_VTVAGLAGKDPVQCSR (UniProt Q99497) | -0.287 | -0.276
24 | PAN2_Q504Q3_745_HLPDILVINCEVNSSK (UniProt Q504Q3) | 0.0787 | 0.0627
25 | PARP14_Q460N5_351+353_CHCELTWSQLSGK (UniProt Q460N5) | -0.0305 | -0.488
26 | PADI2_Q9Y2J8_647_FLGEVHCGTNVR (UniProt Q9Y2J8) | -0.0696 | 0.00601
27 | PARD3_Q8TEW0_66_LEHGDGGILDLDDILCDVADDK (UniProt Q8TEW0) | -0.341 | 0.218
28 | PAPSS1_O43252_295_EREYLQCLHFDCLLDGGVINLSVPIVLTATHEDK (UniProt O43252) | 0.223 | 0.118
29 | OPA1_O60313_801_CNEEHPAYLASDEITTVRK (UniProt O60313) | -0.146 | -0.399
30 | ORC1_Q13415_529_LLDHTGGCMYISGVPGTGK (UniProt Q13415) | 0.15 | -0.0714
31 | PAICS_P22234_281_VVVLMGSTSDLGHCEK (UniProt P22234) | -0.00564 | -0.126
32 | PAIP2_Q9BPZ3_60_CFQEMLEEEEEHEWFIPAR (UniProt Q9BPZ3) | 0.154 | -0.171
33 | PABPN1_Q86U42_195_SIYVGNVDYGATAEELEAHFHGCGSVNR (UniProt Q86U42) | 0.203 | 0.112
34 | PARP1_P09874_256_VCSTNDLK (UniProt P09874) | 0.122 | 0.184
35 | PAFAH1B2_P68402_188_LANVQLLDTDGGFVHSDGAISCHDMFDFLHLTGGGYAK (UniProt P68402) | -0.027 | -0.363
36 | OTUD7B_Q6GQQ9_280_MHLGTNGANCGGVESSEEPVYESLEEFHVFVLAHVLR (UniProt Q6GQQ9) | 0.563 | 0.225
37 | PAICS_P22234_81_KCGETAFIAPQCEMIPIEWVCR (UniProt P22234) | 0.0114 | -0.169
38 | PAICS_P22234_81+91_CGETAFIAPQCEMIPIEWVCR (UniProt P22234) | -0.361 | 0.0615
39 | PACSIN1_Q9BY11_424_LGEEDEQGWCR (UniProt Q9BY11) | 0.174 | 0.0379
40 | PAK1IP1_Q9NWT1_288_KVPPSLLCEINTNAR (UniProt Q9NWT1) | 0.0757 | 0.191
41 | P4HB_P07237_343_ITEFCHR (UniProt P07237) | -0.0121 | -0.0675
42 | PAFAH1B1_P43034_330_MWDVSTGMCLMTLVGHDNWVR (UniProt P43034) | 0.18 | 0.386

Some of the entries above, reformatted:

| Row | Target | probe-labelled cysteine peptide fold change (10 µM) | probe-labelled cysteine peptide fold change (50 µM) |
| --- | --- | --- | --- |
| 11 | OXR1_Q8N573-2_50_EPAQGDLGCGSPPHRPPAPSSPEGPDTGQK (UniProt Q8N573) | -0.446 | -0.323 |
| 12 | PA2G4_Q9UQ80_85+87_GIAFPTSISVNNCVCHFSPLK (UniProt Q9UQ80) | 0.191 | -0.639 |
| 13 | OSBPL1A_Q9BXW6_711_GTITLELLEHNEAYTWTNPTCCVHNIIVGK (UniProt Q9BXW6) | 0.0211 | 0.214 |
| 14 | PAPSS2_O95340_155_IHESAGLPFFEIFVDAPLNICESR (UniProt O95340) | -0.395 | -0.241 |
| 15 | PAG1_Q9NWQ8_355_SPSSCNDLYATVK (UniProt Q9NWQ8) | -0.172 | -0.331 |
| 16 | OPLAH_O14841_236_GHTACADAYLTPAIQR (UniProt O14841) | 0.0694 | 0.184 |
| 17 | P3H1_Q32P28_591_DDSHPVHVDNCILNAETLVCVK (UniProt Q32P28) | 0.107 | -0.154 |
| 18 | OVCA2_Q8WZ82_64_SDFGSCPPEEQPR (UniProt Q8WZ82) | -0.168 | -0.173 |
| 19 | P2RX4_Q99571_132_SDASCTAGSAGTHSNGVSTGR (UniProt Q99571) | -0.103 | 0.0623 |
| 20 | P4HA1_P13674_167_SFLTAEDCFELGK (UniProt P13674) | 0.0998 | 0.23 |
| 21 | PAK4_O96013_336_IGEGSTGIVCIATVR (UniProt O96013) | 0.142 | 0.283 |
| 22 | ORC3_Q9UBD5_639_LHLECSR (UniProt Q9UBD5) | 0.139 | 0.341 |
| 23 | PARK7_Q99497_46_VTVAGLAGKDPVQCSR (UniProt Q99497) | -0.287 | -0.276 |
| 24 | PAN2_Q504Q3_745_HLPDILVINCEVNSSK (UniProt Q504Q3) | 0.0787 | 0.0627 |
| 25 | PARP14_Q460N5_351+353_CHCELTWSQLSGK (UniProt Q460N5) | -0.0305 | -0.488 |
| 26 | PADI2_Q9Y2J8_647_FLGEVHCGTNVR (UniProt Q9Y2J8) | -0.0696 | 0.00601 |
| 27 | PARD3_Q8TEW0_66_LEHGDGGILDLDDILCDVADDK (UniProt Q8TEW0) | -0.341 | 0.218 |
| 28 | PAPSS1_O43252_295_EREYLQCLHFDCLLDGGVINLSVPIVLTATHEDK (UniProt O43252) | 0.223 | 0.118 |
| 29 | OPA1_O60313_801_CNEEHPAYLASDEITTVRK (UniProt O60313) | -0.146 | -0.399 |
| 30 | ORC1_Q13415_529_LLDHTGGCMYISGVPGTGK (UniProt Q13415) | 0.15 | -0.0714 |

More entries.

Row | Target | probe-labelled cysteine peptide fold change (10 µM) | probe-labelled cysteine peptide fold change (50 µM)
43 | PAFAH1B1_P43034_226_MWEVQTGYCVK (UniProt P43034) | 0.333 | 0.413
44 | OSBPL9_Q96SU4_720_LFHEDGECWVYDEPLLK (UniProt Q96SU4) | -0.239 | -0.336
45 | PARP10_Q53GL7_768_GDCTILR (UniProt Q53GL7) | -0.181 | -0.859
46 | PARP14_Q460N5_739_QVWDSVCVK (UniProt Q460N5) | -0.0625 | -0.0386
47 | P4HB_P07237_312_ILEFFGLKKEECPAVR (UniProt P07237) | -0.209 | -1.04
48 | PAFAH2_Q99487_147_SAATTYFCK (UniProt Q99487) | -0.189 | 0.064
49 | OPTN_Q96CV9_8_SHQPLSCLTEK (UniProt Q96CV9) | -0.463 | -0.371
50 | PA2G4_Q9UQ80_49_SLVEASSSGVSVLSLCEK (UniProt Q9UQ80) | -0.0834 | -0.246
51 | PAFAH1B1_P43034_281_EHEHVVECISWAPESSYSSISEATGSETKK (UniProt P43034) | 0.0319 | -0.0113
52 | PAICS_P22234_63_ITSCIFQLLQEAGIK (UniProt P22234) | 0.0644 | -0.0116
53 | PARP1_P09874_298_VADGMVFGALLPCEECSGQLVFK (UniProt P09874) | -0.0775 | -0.0125
54 | PABPC1_P11940_132_VVCDENGSK (UniProt P11940) | -0.073 | -0.183
55 | OXSM_Q9NWU1_327_CMAAALK (UniProt Q9NWU1) | -0.172 | 0.0191
56 | PAIP1_Q9H074_358_GKMDMEEIIQRIENVVLDANCSR (UniProt Q9H074) | -0.00534 | -0.488
57 | P4HB_P07237_400_NVFVEFYAPWCGHCK (UniProt P07237) | -0.267 | -0.626
58 | OTULIN_Q96BN8_215_QIACDELFTNEAEEYSLYEAVK (UniProt Q96BN8) | 0.000893 | -0.0215
59 | P4HA1_P13674_293_QKYEMLCR (UniProt P13674) | -0.00555 | -0.202
60 | PAICS_P22234_266_SESQCR (UniProt P22234) | 0.613 | 1.39
61 | ORC5_O43913_409_CTVSLDFIR (UniProt O43913) | 0.0915 | 0.28
62 | OTUB1_Q96FW1_23_QEPLGSDSEGVNCLAYDEAIMAQQDR (UniProt Q96FW1) | -0.497 | -0.168
63 | OSTF1_Q92882_185_LAFDMATNAACASLLKK (UniProt Q92882) | 0.166 | -0.411

Row | Target | probe-labelled cysteine peptide fold change (10 µM) | probe-labelled cysteine peptide fold change (50 µM)
64 | P4HB_P07237_312_EECPAVR (UniProt P07237) | -0.0964 | 0.161
65 | PAPOLA_P51003_677_TEEDETSEDANCLALSGHDK (UniProt P51003) | -0.0202 | 0.04
66 | OR4D11_Q8NGI4_72_LHTPMYFLLRNLAILDICFSSTTAPKVLLDLLSK (UniProt Q8NGI4) | -0.0338 | -0.346
67 | OXR1_Q8N573_471_ENMPCGETAEFK (UniProt Q8N573) | -0.0436 | -0.217
68 | OSGEPL1_Q9H4B0_295_GQILSSAADIAATVQHTMACHLVK (UniProt Q9H4B0) | -0.142 | -0.49
69 | ORC3_Q9UBD5_141_DCPDMK (UniProt Q9UBD5) | 0.00493 | -0.0638
70 | OPTN_Q96CV9_239_NYFEHEELTVSQLLLCLR (UniProt Q96CV9) | -0.0877 | -0.674
71 | PARP1_P09874_56_VPHWYHFSCFWK (UniProt P09874) | -0.208 | 0.093
72 | OSBPL1A_Q9BXW6_56_SNLGWTPLHLACYFGHR (UniProt Q9BXW6) | 0.0173 | -0.0095
73 | PAK3_O75914_424_LTDFGFCAQITPEQSKR (UniProt O75914) | -0.151 | -0.562
74 | PAIP1_Q9H074_222_LCNYLSHHLTISPQSGNFR (UniProt Q9H074) | 0.322 | 0.132
75 | PAFAH1B1_P43034_252_MVRPNQDGTLIASCSNDQTVR (UniProt P43034) | 0.155 | 0.125
76 | PANK4_Q9NVE7_699_LLLVQTGSSSPCLDLSR (UniProt Q9NVE7) | -0.0499 | -0.043
77 | P4HA2_O15460_504_HAACPVLVGCK (UniProt O15460) | -0.105 | -0.0142
78 | ORC3_Q9UBD5_10_GCFVFKPNSK (UniProt Q9UBD5) | -0.114 | -0.311
79 | OSGEP_Q9NPF4_277_LQEMMATMCQER (UniProt Q9NPF4) | -0.0942 | -0.0539
80 | OPLAH_O14841_408_LLPASFPCIFGPGENQPLSPEASR (UniProt O14841) | 0.121 | 0.408
81 | OXCT1_P55809_235_NFNLPMCK (UniProt P55809) | -0.15 | -0.0876
82 | PACSIN2_Q9UNF0_38_LCSDLMNCLHER (UniProt Q9UNF0) | 0.0702 | 0.108
83 | OTUB1_Q96FW1_212_EFCQQEVEPMCK (UniProt Q96FW1) | -0.0656 | -0.0302
